Reference: PubChem BioAssay AID652272 (Drosophila RNAi Screening Center, 2013)

- Test: 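Genome-wide knock-down search for components of Hedgehog signalling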 (primary screen)
- Cell system: Drosophila clone 8 (Cl8) cells
- Reagent: long dsRNA against Drosophila genes
- Read-out: 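Plate reader light from a firefly reporter under a ptc promoter fragment that responds to Hedgehog, with Renilla light as transfection reference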
- Scale: firefly Hh reporter signal: higher = more ptc reporter light; Renilla reference signal: higher = more Renilla control light
- Active means: 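Called a hit if the two-replicate mean z-score lies below -2 or above +3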
- Meaning of the calls: active = hit: reporter lowered or raised; inactive = not a hit
In all, the deposit lists about 21,000 reagents; shown is a random part of those with a known target gene and a result. Of all reagents, 503 (2.4%) got an active call. 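Raw plate light values, not normalised; calls rest on replicate z-scores that were not deposited; hits include reporter decreases as well as increases.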 Entries without a mark were called inactive. Not given: the amount of reagent, the time to read-out.

Against ThrRS [DRSC02843], the values are firefly Hh reporter signal, replicate 1 = 56502; firefly Hh reporter signal, replicate 2 = 30620; Renilla reference signal, replicate 1 = 2809; Renilla reference signal, replicate 2 = 1531.
RpL10 [DRSC11947] gave firefly Hh reporter signal, replicate 1 = 22649 (active); firefly Hh reporter signal, replicate 2 = 37274; Renilla reference signal, replicate 1 = 1464; Renilla reference signal, replicate 2 = 1943.
Silencing of CG6678 [DRSC16092] came out at: firefly Hh reporter signal, replicate 1 = 1.07e5; firefly Hh reporter signal, replicate 2 = 79319; Renilla reference signal, replicate 1 = 4328; Renilla reference signal, replicate 2 = 3347.
Knock-down of CG33758 [DRSC05158] resulted in: firefly Hh reporter signal, replicate 1 = 1.24e5; firefly Hh reporter signal, replicate 2 = 2.46e5; Renilla reference signal, replicate 1 = 3440; Renilla reference signal, replicate 2 = 10177.
Silencing of Usp47 [DRSC11313] came out at: firefly Hh reporter signal, replicate 1 = 91973; firefly Hh reporter signal, replicate 2 = 72323; Renilla reference signal, replicate 1 = 3283; Renilla reference signal, replicate 2 = 3059.
RpLP0-like [DRSC06424] scored firefly Hh reporter signal, replicate 1 = 51888; firefly Hh reporter signal, replicate 2 = 41830; Renilla reference signal, replicate 1 = 3248; Renilla reference signal, replicate 2 = 1963.
Silencing of Oatp33Ea [DRSC02859] gave: firefly Hh reporter signal, replicate 1 = 48259 (active); firefly Hh reporter signal, replicate 2 = 19024; Renilla reference signal, replicate 1 = 3344; Renilla reference signal, replicate 2 = 1749.
For CG6154 [DRSC15977], the values are firefly Hh reporter signal, replicate 1 = 6.38e5; firefly Hh reporter signal, replicate 2 = 1.12e5; Renilla reference signal, replicate 1 = 38993; Renilla reference signal, replicate 2 = 3661.
With knock-down of CG3638 [DRSC18533], the screen gave firefly Hh reporter signal, replicate 1 = 72528; firefly Hh reporter signal, replicate 2 = 1.25e5; Renilla reference signal, replicate 1 = 2700; Renilla reference signal, replicate 2 = 5927.
With knock-down of Khc [DRSC07448], the record shows firefly Hh reporter signal, replicate 1 = 1.39e5; firefly Hh reporter signal, replicate 2 = 1.30e5; Renilla reference signal, replicate 1 = 5987; Renilla reference signal, replicate 2 = 5645.
After knock-down of Obp28a [DRSC03394], the screen gave firefly Hh reporter signal, replicate 1 = 1.84e5; firefly Hh reporter signal, replicate 2 = 65575; Renilla reference signal, replicate 1 = 4061; Renilla reference signal, replicate 2 = 7145.
For shop [DRSC20030], the values are firefly Hh reporter signal, replicate 1 = 1.56e5; firefly Hh reporter signal, replicate 2 = 1.21e5; Renilla reference signal, replicate 1 = 3554; Renilla reference signal, replicate 2 = 3088.
Slip1 [DRSC17146] showed firefly Hh reporter signal, replicate 1 = 1.35e5; firefly Hh reporter signal, replicate 2 = 50352; Renilla reference signal, replicate 1 = 2960; Renilla reference signal, replicate 2 = 1864.
For CG6106 [DRSC19971] the deposit lists firefly Hh reporter signal, replicate 1 = 90172; firefly Hh reporter signal, replicate 2 = 2.63e5; Renilla reference signal, replicate 1 = 2624; Renilla reference signal, replicate 2 = 10426.
With knock-down of CG14096 [DRSC10099], the screen gave firefly Hh reporter signal, replicate 1 = 1.69e5; firefly Hh reporter signal, replicate 2 = 1.57e5; Renilla reference signal, replicate 1 = 5651; Renilla reference signal, replicate 2 = 4513.
Knock-down of CG2854 [DRSC18595] came out at: firefly Hh reporter signal, replicate 1 = 75157; firefly Hh reporter signal, replicate 2 = 2.40e5; Renilla reference signal, replicate 1 = 2069; Renilla reference signal, replicate 2 = 8595.
After knock-down of mRpL23 [DRSC08307] the results were firefly Hh reporter signal, replicate 1 = 73637; firefly Hh reporter signal, replicate 2 = 52043; Renilla reference signal, replicate 1 = 1996; Renilla reference signal, replicate 2 = 3496.

Entries listed so far with an active call:
RpL10 [DRSC11947] → firefly Hh reporter signal, replicate 1: 22649 (active); firefly Hh reporter signal, replicate 2: 37274; Renilla reference signal, replicate 1: 1464; Renilla reference signal, replicate 2: 1943
Oatp33Ea [DRSC02859] → firefly Hh reporter signal, replicate 1: 48259 (active); firefly Hh reporter signal, replicate 2: 19024; Renilla reference signal, replicate 1: 3344; Renilla reference signal, replicate 2: 1749

Further reagents:
For Pcif1 [DRSC11655] the deposit lists firefly Hh reporter signal, replicate 1 = 74169; firefly Hh reporter signal, replicate 2 = 46218; Renilla reference signal, replicate 1 = 3680; Renilla reference signal, replicate 2 = 2064.
With knock-down of CG34273 [DRSC13041], the screen gave firefly Hh reporter signal, replicate 1 = 51897; firefly Hh reporter signal, replicate 2 = 1.00e5; Renilla reference signal, replicate 1 = 11884; Renilla reference signal, replicate 2 = 2739.
For PolE4 [DRSC04105] the deposit lists firefly Hh reporter signal, replicate 1 = 1.01e5; firefly Hh reporter signal, replicate 2 = 80924; Renilla reference signal, replicate 1 = 1612; Renilla reference signal, replicate 2 = 7419.
CG4328 [DRSC10410] showed firefly Hh reporter signal, replicate 1 = 57860; firefly Hh reporter signal, replicate 2 = 13592; firefly Hh reporter signal, replicate 3 = 18902; Renilla reference signal, replicate 1 = 2787; Renilla reference signal, replicate 2 = 1611.
CG15549 [DRSC15087] showed firefly Hh reporter signal, replicate 1 = 1.13e5; firefly Hh reporter signal, replicate 2 = 1.47e5; Renilla reference signal, replicate 1 = 3604; Renilla reference signal, replicate 2 = 3874.
Knock-down of Whamy [DRSC14574] resulted in: firefly Hh reporter signal, replicate 1 = 66179; firefly Hh reporter signal, replicate 2 = 1.19e5; Renilla reference signal, replicate 1 = 2067; Renilla reference signal, replicate 2 = 3414.
Knock-down of Dus2 [DRSC19591] gave: firefly Hh reporter signal, replicate 1 = 1.44e5; firefly Hh reporter signal, replicate 2 = 75109; Renilla reference signal, replicate 1 = 3335; Renilla reference signal, replicate 2 = 1907.
Knock-down of Nplp1 [DRSC04370] came out at: firefly Hh reporter signal, replicate 1 = 87012; firefly Hh reporter signal, replicate 2 = 62055; Renilla reference signal, replicate 1 = 4304; Renilla reference signal, replicate 2 = 2461.
For robl22E [DRSC00289] the deposit lists firefly Hh reporter signal, replicate 1 = 1.41e5; firefly Hh reporter signal, replicate 2 = 1.26e5; Renilla reference signal, replicate 1 = 3242; Renilla reference signal, replicate 2 = 3009.
Depletion of CG31467 [DRSC16048] gave: firefly Hh reporter signal, replicate 1 = 77968; firefly Hh reporter signal, replicate 2 = 89245; Renilla reference signal, replicate 1 = 2267; Renilla reference signal, replicate 2 = 2408.
